This passage reports binding results from publication doi:10.1101/630897.

The chains are these.
T1: CLOCK-HA (UniProt O08785)
T1 sequence: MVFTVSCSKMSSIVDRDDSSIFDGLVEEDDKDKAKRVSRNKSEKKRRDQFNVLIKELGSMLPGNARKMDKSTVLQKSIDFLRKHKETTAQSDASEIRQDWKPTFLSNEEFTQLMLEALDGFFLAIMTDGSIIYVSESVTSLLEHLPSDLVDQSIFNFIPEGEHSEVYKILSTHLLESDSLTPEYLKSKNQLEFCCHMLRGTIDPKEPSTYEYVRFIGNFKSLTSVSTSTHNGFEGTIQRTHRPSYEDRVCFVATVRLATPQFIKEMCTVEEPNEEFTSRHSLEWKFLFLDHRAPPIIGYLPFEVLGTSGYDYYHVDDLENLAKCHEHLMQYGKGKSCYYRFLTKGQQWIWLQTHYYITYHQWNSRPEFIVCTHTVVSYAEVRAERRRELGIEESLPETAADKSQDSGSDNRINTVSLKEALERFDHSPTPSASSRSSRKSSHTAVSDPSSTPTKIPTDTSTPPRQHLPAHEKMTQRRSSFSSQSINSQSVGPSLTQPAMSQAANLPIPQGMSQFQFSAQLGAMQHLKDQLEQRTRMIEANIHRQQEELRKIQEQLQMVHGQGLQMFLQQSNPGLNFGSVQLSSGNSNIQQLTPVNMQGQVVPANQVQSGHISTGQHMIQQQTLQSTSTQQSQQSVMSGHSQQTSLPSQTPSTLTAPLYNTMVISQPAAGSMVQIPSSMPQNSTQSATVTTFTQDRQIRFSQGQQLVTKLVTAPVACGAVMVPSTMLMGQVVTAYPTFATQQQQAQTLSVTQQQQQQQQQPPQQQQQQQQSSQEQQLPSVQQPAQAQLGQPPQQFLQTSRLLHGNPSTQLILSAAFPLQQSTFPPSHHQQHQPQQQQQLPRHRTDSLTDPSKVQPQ

B1: OGT (O-GlcNAc Transferase) (enzyme, UniProt Q8CGY8 1-1046)
chain: MASSVGNVADSTEPTKRMLSFQGLAELAHREYQAGDFEAAERHCMQLWRQEPDNTGVLLLLSSIHFQCRRLDRSAHFSTLAIKQNPLLAEAYSNLGNVYKERGQLQEAIEHYRHALRLKPDFIDGYINLAAALVAAGDMEGAVQAYVSALQYNPDLYCVRSDLGNLLKALGRLEEAKACYLKAIETQPNFAVAWSNLGCVFNAQGEIWLAIHHFEKAVTLDPNFLDAYINLGNVLKEARIFDRAVAAYLRALSLSPNHAVVHGNLACVYYEQGLIDLAIDTYRRAIELQPHFPDAYCNLANALKEKGSVAEAEDCYNTALRLCPTHADSLNNLANIKREQGNIEEAVRLYRKALEVFPEFAAAHSNLASVLQQQGKLQEALMHYKEAIRISPTFADAYSNMGNTLKEMQDVQGALQCYTRAIQINPAFADAHSNLASIHKDSGNIPEAIASYRTALKLKPDFPDAYCNLAHCLQIVCDWTDYDERMKKLVSIVAEQLEKNRLPSVHPHHSMLYPLSHGFRKAIAERHGNLCLDKINVLHKPPYEHPKDLKLSDGRLRVGYVSSDFGNHPTSHLMQSIPGMHNPDKFEVFCYALSPDDGTNFRVKVMAEANHFIDLSQIPCNGKAADRIHQDGIHILVNMNGYTKGARNELFALRPAPIQAMWLGYPGTSGALFMDYIITDQETSPAEVAEQYSEKLAYMPHTFFIGDHANMFPHLKKKAVIDFKSNGHIYDNRIVLNGIDLKAFLDSLPDVKIVKMKCPDGGDNPDSSNTALNMPVIPMNTIAEAVIEMINRGQIQITINGFSISNGLATTQINNKAATGEEVPRTIIVTTRSQYGLPEDAIVYCNFNQLYKIDPSTLQMWANILKRVPNSVLWLLRFPAVGEPNIQQYAQNMGLPQNRIIFSPVAPKEEHVRRGQLADVCLDTPLCNGHTTGMDVLWAGTPMVTMPGETLASRVAASQLTCLGCLELIAKSRQEYEDIAVKLGTDLEYLKKIRGKVWKQRISSPLFNTKQYTMELERLYLQMWEHYAAGNKPDHMIKPVEVTESA
B2: ZBTB20 (protein, UniProt Q8K0L9 1-741)
chain: MLERKKPKTAENQKASEENEITQPGGSSAKPALPCLNFEAVLSPAPALIHSTHSLTNSHAHTGSSDCDISCKGMTERIHSINLHNFSNSVLETLNEQRNRGHFCDVTVRIHGSMLRAHRCVLAAGSPFFQDKLLLGYSDIEIPSVVSVQSVQKLIDFMYSGVLRVSQSEALQILTAASILQIKTVIDECTRIVSQNVGDVFPGIQDSGQDTPRGTPESGTSGQSSDTESGYLQSHPQHSVDRIYSALYACSMQNGSGERSFYSGAVVSHHETALGLPRDHHMEDPSWITRIHERSQQMERYLSTTPETTHCRKQPRPVRIQTLVGNIHIKQEMEDDYDYYGQQRVQILERNESEECTEDTDQAEGTESEPKGESFDSGVSSSIGTEPDSVEQQFGAAAPRDGQAEPAQPEQAAEAPAESSAQPNQLEPGASSPERSNESEMDNTVITVSNSSDKGVLQQPSVNTSIGQPLPSTQLYLRQTETLTSNLRMPLTLTSNTQVIGTAGNTYLPALFTTQPAGSGPKPFLFSLPQPLTGQQTQFVTVSQPGLSTFTAQLPAPQPLASSAGHSTASGQGDKKPYECTLCNKTFTAKQNYVKHMFVHTGEKPHQCSICWRSFSLKDYLIKHMVTHTGVRAYQCSICNKRFTQKSSLNVHMRLHRGEKSYECYICKKKFSHKTLLERHVALHSASNGTPPAGTPPGARAGPPGVVACTEGTTYVCSVCPAKFDQIEQFNDHMRMHVSDG

No constants are given. Whether binding was seen depends on the method and setting. In cells and extracts the contact can be indirect. Here binding means that the protein was enriched with, or labelled near, the bait; the list need not be complete. Where a sequence is shown, tags or fusion partners need not be part of it.

The assay addresses T1, CLOCK-HA. In words: affinity purification with mass spectrometry.
In the case of “BMAL1 (endogenous, mouse liver) (from UniProt Q9WTL8 1-632)”, the binding entry was “binds”.

For the molecule “CNOT1 (endogenous, mouse liver) (from UniProt Q6ZQ08 1-2375)”, the binding result was “binds”. With CNOT2 (from UniProt Q8C5L3 1-540), the binding entry is reported as “binds”. The value for B1 was “binds”. B2: the binding entry is “binds”.
